No constants are given. Whether binding was seen depends on the method and setting. In cells and extracts the contact can be indirect.
T1: Discs-large (Dlg), transgenic, overexpressed in follicle cells (Drosophila melanogaster) (UniProt P31007)
T1 sequence: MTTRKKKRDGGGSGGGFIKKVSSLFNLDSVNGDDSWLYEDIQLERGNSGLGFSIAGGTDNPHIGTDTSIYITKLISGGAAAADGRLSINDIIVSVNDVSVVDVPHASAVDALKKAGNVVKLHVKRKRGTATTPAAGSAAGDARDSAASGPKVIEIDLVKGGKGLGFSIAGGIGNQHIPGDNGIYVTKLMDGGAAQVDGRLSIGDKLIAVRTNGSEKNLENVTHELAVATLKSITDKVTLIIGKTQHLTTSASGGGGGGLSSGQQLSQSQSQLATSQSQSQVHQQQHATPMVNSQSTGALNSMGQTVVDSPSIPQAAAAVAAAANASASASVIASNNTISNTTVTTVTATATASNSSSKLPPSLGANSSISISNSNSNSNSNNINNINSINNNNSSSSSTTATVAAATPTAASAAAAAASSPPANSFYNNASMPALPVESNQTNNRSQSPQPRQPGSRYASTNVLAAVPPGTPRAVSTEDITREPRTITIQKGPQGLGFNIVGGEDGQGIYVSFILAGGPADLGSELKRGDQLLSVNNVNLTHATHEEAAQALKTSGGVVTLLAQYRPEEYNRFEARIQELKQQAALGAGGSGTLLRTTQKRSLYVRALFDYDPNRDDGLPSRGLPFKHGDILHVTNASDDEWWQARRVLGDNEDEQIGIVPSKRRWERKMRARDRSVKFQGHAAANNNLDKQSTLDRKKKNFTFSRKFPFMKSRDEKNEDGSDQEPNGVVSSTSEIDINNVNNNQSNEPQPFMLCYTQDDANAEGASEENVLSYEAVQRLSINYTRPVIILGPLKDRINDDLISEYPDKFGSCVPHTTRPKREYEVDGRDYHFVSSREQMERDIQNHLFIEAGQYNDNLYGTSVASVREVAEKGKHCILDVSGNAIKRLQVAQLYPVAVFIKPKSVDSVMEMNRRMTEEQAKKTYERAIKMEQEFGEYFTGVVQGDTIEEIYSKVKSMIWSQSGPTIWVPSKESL

Amino acid sequences for entries named in this document (tags omitted). A change or cut given only in a name is not applied to a line headed by its entry. Chains listed by the source or under a name are the forms on record and can include a tag or linker.
UniProt P12982: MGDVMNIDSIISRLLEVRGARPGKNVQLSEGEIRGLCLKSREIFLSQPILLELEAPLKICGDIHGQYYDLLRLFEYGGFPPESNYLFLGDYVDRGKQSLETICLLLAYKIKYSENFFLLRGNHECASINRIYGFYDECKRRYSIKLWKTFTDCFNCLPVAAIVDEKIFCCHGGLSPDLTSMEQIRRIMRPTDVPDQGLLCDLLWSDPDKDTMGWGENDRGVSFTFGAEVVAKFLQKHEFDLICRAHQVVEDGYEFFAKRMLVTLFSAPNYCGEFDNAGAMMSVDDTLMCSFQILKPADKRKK
Scribble (Scrib), transgenic, overexpressed in follicle cells (Q7KRY7-2, form named): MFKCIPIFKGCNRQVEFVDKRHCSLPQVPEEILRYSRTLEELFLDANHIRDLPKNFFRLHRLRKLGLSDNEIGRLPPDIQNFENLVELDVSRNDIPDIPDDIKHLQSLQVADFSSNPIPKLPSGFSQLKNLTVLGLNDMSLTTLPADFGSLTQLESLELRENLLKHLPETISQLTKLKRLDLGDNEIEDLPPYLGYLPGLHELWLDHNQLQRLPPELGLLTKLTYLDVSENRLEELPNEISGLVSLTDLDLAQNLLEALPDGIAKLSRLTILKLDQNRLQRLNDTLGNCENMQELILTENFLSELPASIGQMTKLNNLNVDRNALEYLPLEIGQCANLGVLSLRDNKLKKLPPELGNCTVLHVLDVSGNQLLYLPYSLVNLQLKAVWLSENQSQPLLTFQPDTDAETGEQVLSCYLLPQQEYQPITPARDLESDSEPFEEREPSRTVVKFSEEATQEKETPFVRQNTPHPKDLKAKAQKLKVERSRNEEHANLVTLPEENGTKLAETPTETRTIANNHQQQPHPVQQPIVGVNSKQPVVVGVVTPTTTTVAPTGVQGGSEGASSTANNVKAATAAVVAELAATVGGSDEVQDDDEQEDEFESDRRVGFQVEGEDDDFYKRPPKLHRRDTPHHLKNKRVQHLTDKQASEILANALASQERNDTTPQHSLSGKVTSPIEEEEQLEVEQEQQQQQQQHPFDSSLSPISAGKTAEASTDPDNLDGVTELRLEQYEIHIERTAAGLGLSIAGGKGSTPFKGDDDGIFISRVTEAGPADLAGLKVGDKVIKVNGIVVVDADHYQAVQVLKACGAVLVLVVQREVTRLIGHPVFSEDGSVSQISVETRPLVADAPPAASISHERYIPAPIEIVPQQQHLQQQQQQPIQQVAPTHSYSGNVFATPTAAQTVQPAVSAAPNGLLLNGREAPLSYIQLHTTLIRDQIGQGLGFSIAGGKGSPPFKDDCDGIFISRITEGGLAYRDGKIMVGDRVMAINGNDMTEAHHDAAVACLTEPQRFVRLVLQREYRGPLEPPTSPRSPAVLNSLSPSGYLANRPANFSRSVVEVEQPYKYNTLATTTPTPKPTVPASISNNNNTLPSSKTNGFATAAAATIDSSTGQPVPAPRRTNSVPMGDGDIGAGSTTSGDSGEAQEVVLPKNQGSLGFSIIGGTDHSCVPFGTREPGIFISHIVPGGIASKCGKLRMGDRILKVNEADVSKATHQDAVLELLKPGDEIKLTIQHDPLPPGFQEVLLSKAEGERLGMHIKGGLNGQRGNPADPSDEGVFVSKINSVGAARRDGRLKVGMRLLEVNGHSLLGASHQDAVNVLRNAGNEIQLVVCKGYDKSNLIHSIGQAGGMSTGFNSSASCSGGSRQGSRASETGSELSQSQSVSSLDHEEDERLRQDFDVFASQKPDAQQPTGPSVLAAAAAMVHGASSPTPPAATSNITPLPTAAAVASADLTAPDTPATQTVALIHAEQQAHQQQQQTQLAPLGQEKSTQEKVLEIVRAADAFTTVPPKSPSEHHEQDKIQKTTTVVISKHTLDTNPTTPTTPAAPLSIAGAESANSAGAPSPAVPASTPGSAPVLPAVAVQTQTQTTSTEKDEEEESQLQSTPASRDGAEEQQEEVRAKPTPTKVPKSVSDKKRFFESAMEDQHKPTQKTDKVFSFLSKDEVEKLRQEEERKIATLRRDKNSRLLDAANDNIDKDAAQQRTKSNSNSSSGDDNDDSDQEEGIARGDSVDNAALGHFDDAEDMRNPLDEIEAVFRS


How the values were obtained:
[1] = molecular target: PP1 (Pp1-87B), overexpressed in S2 cells (Drosophila) (UniProt P12982); experiment: co-IP; proteins overexpressed in S2 cells; lysed in IP buffer (10 mM Tris, 150 mM NaCl, 0.5 mM EDTA, 0.5% NP-40); antibody-conjugated Protein G Dynabeads overnight at 4°C; also after in situ crosslinking with 2 mM DSS before lysis; for Fig. S5D also with severalfold more starting material
[2] = molecular target: T1, Discs-large (Dlg), transgenic, overexpressed in follicle cells (Drosophila melanogaster); experiment: co-IP; extracts from follicles; told only in the discussion as 'biochemically detect'; no figure named
[3] = molecular target: Protein Phosphatase 1α (PP1α) homolog Pp1-87B, transgenic, overexpressed in follicle cells (Drosophila) (UniProt P12982); experiment: co-IP; transgenic proteins overexpressed in follicle cells; ovary tissue lysed in IP buffer (10 mM Tris, 150 mM NaCl, 0.5 mM EDTA, 0.5% NP-40); 200 µg protein on antibody-conjugated Protein G Dynabeads overnight at 4°C; western blot

Row | Molecule | binding [1] | binding [2] | binding [3]
1 | Scribble (Scrib), transgenic, overexpressed in follicle cells (from UniProt Q7KRY7-2 1-1756) | – | no binding | no binding
2 | Discs-large (Dlg), transgenic, overexpressed in follicle cells (protein, UniProt P31007-5 1-975) MTTRKKKRDGGGSGGGFIKKVSSLFNLDSVNGDDSWLYEDIQLERGNSGLGFSIAGGTDNPHIGTDTSIYITKLISGGAAAADGRLSINDIIVSVNDVSVVDVPHASAVDALKKAGNVVKLHVKRKRGTATTPAAGSAAGDARDSAASGPKVIEIDLVKGGKGLGFSIAGGIGNQHIPGDNGIYVTKLMDGGAAQVDGRLSIGDKLIAVRTNGSEKNLENVTHELAVATLKSITDKVTLIIGKTQHLTTSASGGGGGGLSSGQQLSQSQSQLATSQSQSQVHQQQHATPMVNSQSTGALNSMGQTVVDSPSIPQAAAAVAAAANASASASVIASNNTISNTTVTTVTATATASNSSSKLPPSLGANSSISISNSNSNSNSNNINNINSINNNNSSSSSTTATVAAATPTAASAAAAAASSPPANSFYNNASMPALPVESNQTNNRSQSPQPRQPGSRYASTNVLAAVPPGTPRAVSTEDITREPRTITIQKGPQGLGFNIVGGEDGQGIYVSFILAGGPADLGSELKRGDQLLSVNNVNLTHATHEEAAQALKTSGGVVTLLAQYRPEEYNRFEARIQELKQQAALGAGGSGTLLRTTQKRSLYVRALFDYDPNRDDGLPSRGLPFKHGDILHVTNASDDEWWQARRVLGDNEDEQIGIVPSKRRWERKMRARDRSVKFQGHAAANNNLDKQSTLDRKKKNFTFSRKFPFMKSRDEKNEDGSDQEPNGVVSSTSEIDINNVNNNQSNEPQPFMLCYTQDDANAEGASEENVLSYEAVQRLSINYTRPVIILGPLKDRINDDLISEYPDKFGSCVPHTTRPKREYEVDGRDYHFVSSREQMERDIQNHLFIEAGQYNDNLYGTSVASVREVAEKGKHCILDVSGNAIKRLQVAQLYPVAVFIKPKSVDSVMEMNRRMTEEQAKKTYERAIKMEQEFGEYFTGVVQGDTIEEIYSKVKSMIWSQSGPTIWVPSKESL | – | – | no binding

The remaining lines, values ahead:

Row | binding [1] | binding [2] | binding [3] | Molecule
3 | no binding | – | – | Scrib, overexpressed in S2 cells (from UniProt Q7KRY7-2 1-1756)
4 | no binding | – | – | Dlg, overexpressed in S2 cells (protein, UniProt P31007-5 1-975) MTTRKKKRDGGGSGGGFIKKVSSLFNLDSVNGDDSWLYEDIQLERGNSGLGFSIAGGTDNPHIGTDTSIYITKLISGGAAAADGRLSINDIIVSVNDVSVVDVPHASAVDALKKAGNVVKLHVKRKRGTATTPAAGSAAGDARDSAASGPKVIEIDLVKGGKGLGFSIAGGIGNQHIPGDNGIYVTKLMDGGAAQVDGRLSIGDKLIAVRTNGSEKNLENVTHELAVATLKSITDKVTLIIGKTQHLTTSASGGGGGGLSSGQQLSQSQSQLATSQSQSQVHQQQHATPMVNSQSTGALNSMGQTVVDSPSIPQAAAAVAAAANASASASVIASNNTISNTTVTTVTATATASNSSSKLPPSLGANSSISISNSNSNSNSNNINNINSINNNNSSSSSTTATVAAATPTAASAAAAAASSPPANSFYNNASMPALPVESNQTNNRSQSPQPRQPGSRYASTNVLAAVPPGTPRAVSTEDITREPRTITIQKGPQGLGFNIVGGEDGQGIYVSFILAGGPADLGSELKRGDQLLSVNNVNLTHATHEEAAQALKTSGGVVTLLAQYRPEEYNRFEARIQELKQQAALGAGGSGTLLRTTQKRSLYVRALFDYDPNRDDGLPSRGLPFKHGDILHVTNASDDEWWQARRVLGDNEDEQIGIVPSKRRWERKMRARDRSVKFQGHAAANNNLDKQSTLDRKKKNFTFSRKFPFMKSRDEKNEDGSDQEPNGVVSSTSEIDINNVNNNQSNEPQPFMLCYTQDDANAEGASEENVLSYEAVQRLSINYTRPVIILGPLKDRINDDLISEYPDKFGSCVPHTTRPKREYEVDGRDYHFVSSREQMERDIQNHLFIEAGQYNDNLYGTSVASVREVAEKGKHCILDVSGNAIKRLQVAQLYPVAVFIKPKSVDSVMEMNRRMTEEQAKKTYERAIKMEQEFGEYFTGVVQGDTIEEIYSKVKSMIWSQSGPTIWVPSKESL

Source: publication PMC9346270
